PubChem BioAssay AID1259260 – Sanger Institute – 2017

- Aim: 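Kinome knock-down with three anchor drugs to find synergy partners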 (primary screen)
- System: human NCI-H716 colorectal cancer cells
- Reagents: siRNA pool against human genes
- Treatment: anchor drugs BYL719 (alpelisib) 1 µM, cetuximab 5 µg/ml or trametinib 10 nM, each at a dose chosen to harm viability only mildly; DMSO vehicle for the knock-down-alone arm
- Read-out: 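Mean viability over replicates against non-targeting siRNA, robust z-score without drug, and per-drug synergy comparing combined with single treatments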
- Scale: viability robust z-score, siRNA alone: higher = more surviving cells; below -3 called essential
- Active means: 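a knock-down counts as essential if its no-drug robust z-score is lower than -3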
- Meaning of the calls: active = essential (knock-down alone lowers viability); inactive = no essential effect
Here is an unselected part of 794 reagents. 13 of them (1.6%) count as active. 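Calls reflect only knock-down without drug; synergy above 0.15 was grouped apart and does not change the call.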 Further read-outs or replicates are left out here. Not stated in the record: the amount of reagent, the time to read-out.

gene knocked down,"viability robust z-score, siRNA alone",call
MKNK2 (MAPK interacting serine/threonine kinase 2),0.602,inactive
SRPK2 (SRSF protein kinase 2),0.602,inactive
CSNK2A2 (casein kinase 2 alpha 2),0.602,inactive
"HCK (HCK proto-oncogene, Src family tyrosine kinase)",0.602,inactive
RIOK2 (RIO kinase 2),0.602,inactive
PTK2B (protein tyrosine kinase 2 beta),-0.333,inactive
CHD4 (chromodomain helicase DNA binding protein 4),-0.428,inactive
MAP2K6 (mitogen-activated protein kinase kinase 6),0.602,inactive
"NRAS (NRAS proto-oncogene, GTPase)",0.602,inactive
PRKCI (protein kinase C iota),0.602,inactive
"FES (FES proto-oncogene, tyrosine kinase)",-0.673,inactive
SYK (spleen associated tyrosine kinase),-1.85,inactive
ACSL6 (acyl-CoA synthetase long chain family member 6),0.602,inactive
ITPKB (inositol-trisphosphate 3-kinase B),-0.0687,inactive
PKN2 (protein kinase N2),-2.11,inactive
NR4A2 (nuclear receptor subfamily 4 group A member 2),0.602,inactive
CLK1 (CDC like kinase 1),-0.816,inactive
ITPK1 (inositol-tetrakisphosphate 1-kinase),0.602,inactive
JAK2 (Janus kinase 2),0.602,inactive
PACSIN1 (protein kinase C and casein kinase substrate in neurons 1),0.602,inactive
MAPK4 (mitogen-activated protein kinase 4),-0.869,inactive

Entries listed so far whose target name begins with C or c:
gene knocked down,"viability robust z-score, siRNA alone",call
CSNK2A2 (casein kinase 2 alpha 2),0.602,inactive
CHD4 (chromodomain helicase DNA binding protein 4),-0.428,inactive
CLK1 (CDC like kinase 1),-0.816,inactive

The results go on:
gene knocked down,"viability robust z-score, siRNA alone",call
PRKAR1B (protein kinase cAMP-dependent type I regulatory subunit beta),-1.72,inactive
TAOK3 (TAO kinase 3),0.541,inactive
ATM (ATM serine/threonine kinase),-2.26,inactive
EXOSC10 (exosome component 10),-2.76,inactive
RPS6KA4 (ribosomal protein S6 kinase A4),-0.759,inactive
PRKCA (protein kinase C alpha),0.38,inactive
MAP2K1 (mitogen-activated protein kinase kinase 1),0.566,inactive
AKT3 (AKT serine/threonine kinase 3),0.602,inactive
CDK15 (cyclin dependent kinase 15),0.602,inactive
PIK3R3 (phosphoinositide-3-kinase regulatory subunit 3),0.602,inactive
CTNNB1 (catenin beta 1),0.602,inactive
DYRK1A,0.465,inactive
"GUCY2EP (guanylate cyclase 2E, pseudogene)",0.602,inactive
IRAK1 (interleukin 1 receptor associated kinase 1),0.602,inactive
STK40 (serine/threonine kinase 40),0.157,inactive
"FYN (FYN proto-oncogene, Src family tyrosine kinase)",0.602,inactive
JAK3 (Janus kinase 3),0.602,inactive
EGFR (epidermal growth factor receptor),-0.448,inactive
"LYN (LYN proto-oncogene, Src family tyrosine kinase)",0.602,inactive
TESK2 (testis associated actin remodelling kinase 2),0.602,inactive
DYRK4 (dual specificity tyrosine phosphorylation regulated kinase 4),-0.569,inactive
PHKG2 (phosphorylase kinase catalytic subunit gamma 2),0.602,inactive
ATR (ATR checkpoint kinase),0.602,inactive
CAMK2D (calcium/calmodulin dependent protein kinase II delta),0.602,inactive
MVK (mevalonate kinase),0.602,inactive
EPHA4 (EPH receptor A4),-0.695,inactive
CDKN1C (cyclin dependent kinase inhibitor 1C),0.602,inactive
MELK (maternal embryonic leucine zipper kinase),0.423,inactive
IKBKE (inhibitor of nuclear factor kappa B kinase subunit epsilon),-2.43,inactive
